Each number is a percent effect as filed.
How 0% and 100% were set is not recorded. Most values in the screen are low, and negative values occur.
This is an unselected part of the compounds tested.

Sequences of proteins named here, by UniProt entry; tags and fusion partners are left off. Residues count along the entry.
UniProt A4I591, 1-473: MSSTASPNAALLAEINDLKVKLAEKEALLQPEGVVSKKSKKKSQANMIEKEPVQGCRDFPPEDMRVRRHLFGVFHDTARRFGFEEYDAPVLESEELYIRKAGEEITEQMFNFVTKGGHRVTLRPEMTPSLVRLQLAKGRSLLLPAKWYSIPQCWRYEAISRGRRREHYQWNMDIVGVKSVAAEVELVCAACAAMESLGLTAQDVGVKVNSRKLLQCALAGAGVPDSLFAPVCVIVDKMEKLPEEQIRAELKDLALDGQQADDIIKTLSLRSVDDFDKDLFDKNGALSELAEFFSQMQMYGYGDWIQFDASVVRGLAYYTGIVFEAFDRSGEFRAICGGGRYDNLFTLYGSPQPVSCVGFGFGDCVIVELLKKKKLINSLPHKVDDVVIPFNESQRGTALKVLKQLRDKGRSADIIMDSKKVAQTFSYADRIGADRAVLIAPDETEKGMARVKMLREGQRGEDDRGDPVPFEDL

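Histidine-tRNA ligase, Leishmania infantum (UniProt A4I591). Enzyme assay of histidyl-tRNA synthetase; the read-out is not stated. Concentration: 30 µM. Direction is inferred from retests: higher values go with stronger inhibition. The assay is labelled LdHisRS but filed under L. infantum. Of about 69,000 compounds tested this way, about 410 (0.6%) reached 50% or more in at least one test.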

compound,effect
O=C(c1ncc(F)cc1F)N1CCC(c2ncc[nH]2)CC1,9.79%
COc1ncc(CN2CCC3(CCCN(CC4CCCCC4)C3)C2)cn1 (centres undefined),14.29%
CC(Cn1cccn1)NCCS(=O)(=O)c1ccc(Cl)cc1 (centres undefined),8.889%
CN(Cc1cnn(C)c1)C(=O)c1ccc(Cl)c(N2CCNC2=O)c1,-1.205%
Cc1ccc(OCc2occc2C(=O)N2C[C@@H]3[C@@H](CN(C)C)[C@@H]3C2)cc1,15.93%
Cc1cccc(C(Nc2nccc(C)n2)C2CC2)n1 (centres undefined),19.67%
CCN(CC)c1ccc(CNC(=O)c2ccccn2)cn1,-4.386%
COc1cccc(CN2CCCC3(CCN(C(=O)[C@H]4CCCO4)C3)C2)c1 (some centres undefined),19.51%
CC(C(=O)N1CCCC1)n1nc(-c2cccs2)cc(N)c1=O (centres undefined),5.714%
Cc1cc(C(=O)N(C)C)c2c(Br)cccc2n1,14.63%
CCC(C(=O)NCC1CCN(c2ccncc2)CC1)N(C)C (centres undefined),-7.5%
Cc1nc(C)n(C2CCCN(C(=O)Cc3cccnc3)C2)n1 (centres undefined),17.31%
Cc1cn2c(n1)CCC(NC(=O)c1ccc(OCC3CC3)nc1)C2 (centres undefined),2.679%
Cc1cc(C)nc(Nc2cc(C)nc(C3CCN(C(=O)CO)C3)n2)n1 (centres undefined),10.07%
O=C1CC(c2cccs2)c2sc(C(=O)O)c(-c3ccccc3)c2N1 (centres undefined),20.78%
O=C(N1CCCC(n2cncn2)C1)C1(c2cccc(F)c2)CC1 (centres undefined),13.39%
CC(C)N1CCC(Cc2cc(-c3cc(F)ccc3C(=O)O)ncn2)C1 (centres undefined),12.37%
Cc1cnn(CC2CCCN2CC(=O)NC2CCN(C3CC3)CC2)c1 (centres undefined),4.348%
CN(C(=O)CN1CCC(c2cc3ccccc3[nH]2)CC1)C1CC1,10%
Cc1cccc(NC(=O)N2CCC3(CC(=O)N(c4ccsc4)C3)C2)c1 (centres undefined),24.77%
CC(C)Oc1cccc(CN(C)C(=O)Nc2cccn(C)c2=O)c1,13.95%
Cc1nc(-c2ccccc2)n(CC(=O)N(C(C)C)C(C)C)n1,14.29%
O=C(NCc1ccccc1)N1CCC2(CC(=O)N(c3ccccc3)C2)C1 (centres undefined),11.93%
COc1cc(CNC2CCc3nc(C)nn3C2)cc2c1OCO2 (centres undefined),-7.692%
Cn1nc(Cn2ccnc2)c2c1CN(Cc1ccoc1)C2,3.419%
COc1ccc(CCNC2CCCN(c3ccc(C)nn3)C2)cc1 (centres undefined),22.39%
CNC(=O)CSc1nc2c(cnn2Cc2ccc(F)cc2)c(=O)[nH]1,11.54%
C[C@@H]1CN(C(=O)C2CCS(=O)(=O)CC2)C[C@]1(C)O,15.05%
O=C(C1CN(Cc2ccsc2)Cc2ccnn2C1)N1CCCC1 (centres undefined),21.05%
O=C1N(Cc2cccc(F)c2)CCC12CCN(c1ccccn1)CC2,15.38%
Cc1c[nH]c(CN2CCCn3nc(CNS(C)(=O)=O)cc3C2)n1,-2.778%
CC(C)c1n[nH]c(C2CN(CCc3cccs3)CCO2)n1 (centres undefined),0%
CN1CCN(Cc2ccoc2)Cc2cccnc21,7.843%
Cc1ccsc1[C@@H]1CCN(C(=O)CCOc2ccccc2)C[C@H]1O,23.29%
COc1cc(Cl)cc(C(=O)N2CCC3(CCCNC3)C2)c1 (centres undefined),17.74%
O=C(OCc1cccs1)c1cccc(C(=O)N2CCCC2)n1,8.065%
CNC(=O)c1cccc(CNC2CCSc3c(Cl)cccc32)c1 (centres undefined),2.521%
CC(=O)Nc1ccc(-c2ccccc2NC(=O)CN)cc1,8.333%
CC(=O)N1CCCN(C(=O)C(C)n2cncn2)CC1 (centres undefined),-7.018%
O=C(CCN1CCOC1=O)N(Cc1ccncc1)CC1CCCO1 (centres undefined),9.735%
Cc1nn(C(C)(C)C)c(=O)n1CC(=O)NCC(F)(F)F,5.479%
CNC(=O)C1(c2cnccn2)CCCN1C(=O)c1cccc(C)n1 (centres undefined),9.375%
CCCNS(=O)(=O)c1cnccc1N1CCN(C(C)C)CC1,8.929%
Cc1nn(C(C)C)c(C)c1NC(=O)c1ccncc1,17.14%
O=C(CCc1ccsc1)NCC1CCN(c2ccccc2)C1 (centres undefined),10.58%
COCCn1ccc(NC(=O)Nc2ccccc2)n1,11.32%
OCC1(Cc2ccc(F)cc2F)CCCN(Cc2ccncc2)C1 (centres undefined),22%
O=C(Nc1ccc(Cl)cc1)c1nn(C2CCS(=O)(=O)C2)c2c1CCCC2 (centres undefined),12.5%
Cc1cccc(N(C)S(=O)(=O)c2cc(C(=O)O)cs2)c1,15.79%
O=C(c1cnoc1)N1CCC[C@]2(C[C@@H](Oc3ccccn3)CO2)C1,20.97%
CCCN1CCC(NC(=O)NCCc2nc(CC)c(C)s2)CC1,9.615%
CCC1=N[C@@]2(CC[C@@H]3CN(S(=O)(=O)CC)C[C@@H]32)C(=O)N1CC(C)C,14.56%
CSc1nccc(NCC2CNCCO2)n1 (centres undefined),9.948%
Cc1nc(NCCc2ccccc2)cc(C(=O)N2CCOCC2)n1,19.47%
COc1cc(CNc2nc(C(F)(F)F)no2)cc(OC)c1OC,0%
CS(=O)(=O)CCN1CCc2c(ncn2C2CC2)C1,15.93%
COc1c(C2CCCN2C(=O)c2c(C)noc2C)c(C)nn1C (centres undefined),0%
COc1cccc2c(=O)n(Cc3nc(C)cc(O)n3)cnc12,0%
Cn1nnn(-c2ccc(NS(=O)(=O)c3ccc(Br)cc3)cc2)c1=O,5.217%
O=C(c1nsc(Cl)c1Cl)N1CCc2nc3sccc3c(=O)n2CC1,3.448%
CCOc1cc(=O)n2c(c1C(=O)OCc1cccc(C)c1)CCCC2,21.74%
c1ncn(Cc2nnc(C3CCN(C4CCOCC4)CC3)n2C2CC2)n1,8.333%
Cc1cc(N2CCCC2(C)c2nc(C)cc(C(=O)N(C)C)n2)ncn1 (centres undefined),11.59%
Cc1ccc(C(=O)N(C)Cc2ccc(Br)o2)c(=O)[nH]1,4.494%
O=C(c1cc2cc(I)ccc2[nH]1)N1CCC(Nc2cccnn2)CC1,11.4%
Cc1nn(C)cc1CN1CCN(CC2(c3ccccc3)CC2)CC1,11.27%
O=C(CCCc1nnc(-c2ccccc2)o1)N1CCC1,1.786%
Cc1csc(N(C)C(=O)C2CC(=O)N(CCc3ccccc3)C2)n1 (centres undefined),26.67%
CCc1nccn1C1CCCN(C(=O)c2cc[nH]n2)C1 (centres undefined),9.434%
Cc1cccnc1C(=O)N1C[C@@H]2CC[C@H](Oc3cccc(F)c3)[C@@H]2C1,-8%
Cc1nn(C)c(Cl)c1C1CCCN1C(=O)c1ccc(O)nc1 (centres undefined),7.143%
CCOC(=O)c1sc2ccsc2c1CNS(C)(=O)=O,5.505%
CN(CCO)C[C@@H]1CN(Cc2ccccc2C#N)C[C@@H]1CO,8.219%
CCOCCCC(=O)NCC(c1ccccc1)N1CCc2sccc2C1 (centres undefined),11.11%
COCCNC(=O)c1cc(OC)ccc1Br,16.44%
COc1ccc(C)cc1CN1CCCC1Cn1nc(C)nc1C (centres undefined),5.405%
CCN1CC2(CC1=O)CN(Cc1ccco1)CCN(C(=O)N(C)C)C2 (centres undefined),7.619%
CN(C)CC1CN(Cc2cccc(C#N)c2)Cc2nccn2C1 (centres undefined),24.47%
Fc1cccc(CN2C[C@@H]3CN(Cc4ccccn4)C[C@@H]3C2)c1,19.23%
CC(=O)N1CCCC1c1nnc2n1CCCCC2 (centres undefined),21.15%
O=C(c1cc(=O)n(-c2ccccc2)[nH]1)N1CCCC(c2ccn[nH]2)C1 (centres undefined),59.04%
O=C(c1cnoc1)N1CCC[C@]2(C[C@@H](OCc3ccccn3)CO2)C1,13.33%
CC(C)n1[nH]c(=O)c2c1NC(=O)CC2c1cccnc1 (centres undefined),9.524%
Cc1cc2cc(C(=O)N3CC[C@H](O)[C@]4(CCCO4)C3)ccc2o1,14.29%
Fc1ccc(CN2CCCCC2Cn2cncn2)c2ncccc12 (centres undefined),37.63%
Cc1cccc(CN2C[C@@H]3COC[C@]3(COc3cccnc3)C2)n1,24.69%
CC(OCc1ccccc1)C(=O)NCc1ccc(N(C)C)cc1 (centres undefined),11.5%
CCN(CC)C1(Cc2cc(CC(C)C)on2)COC1,24.32%
CCC(=O)N1CSCC1C(=O)Nc1ccccc1-c1cccs1 (centres undefined),20%
Cn1ncc2ccc(C3CCCN(Cc4cccs4)C3)nc21 (centres undefined),10.07%
CCC(=O)NC1CCCN(Cn2nc(C(C)(C)C)ccc2=O)C1 (centres undefined),-2.74%
CC(c1cccc(Cl)c1)N(C)CCS(=O)(=O)CCC(N)=O (centres undefined),-2.564%
CCc1nc(CN2CCCN(C(=O)C(CC)OC)CC2)cs1 (centres undefined),12.5%

The first 11 entries again:

{"compound": "O=C(c1ncc(F)cc1F)N1CCC(c2ncc[nH]2)CC1", "effect": 9.79}
{"compound": "COc1ncc(CN2CCC3(CCCN(CC4CCCCC4)C3)C2)cn1", "stereo": "centres undefined", "effect": 14.29}
{"compound": "CC(Cn1cccn1)NCCS(=O)(=O)c1ccc(Cl)cc1", "stereo": "centres undefined", "effect": 8.889}
{"compound": "CN(Cc1cnn(C)c1)C(=O)c1ccc(Cl)c(N2CCNC2=O)c1", "effect": -1.205}
{"compound": "Cc1ccc(OCc2occc2C(=O)N2C[C@@H]3[C@@H](CN(C)C)[C@@H]3C2)cc1", "effect": 15.93}
{"compound": "Cc1cccc(C(Nc2nccc(C)n2)C2CC2)n1", "stereo": "centres undefined", "effect": 19.67}
{"compound": "CCN(CC)c1ccc(CNC(=O)c2ccccn2)cn1", "effect": -4.386}
{"compound": "COc1cccc(CN2CCCC3(CCN(C(=O)[C@H]4CCCO4)C3)C2)c1", "stereo": "some centres undefined", "effect": 19.51}
{"compound": "CC(C(=O)N1CCCC1)n1nc(-c2cccs2)cc(N)c1=O", "stereo": "centres undefined", "effect": 5.714}
{"compound": "Cc1cc(C(=O)N(C)C)c2c(Br)cccc2n1", "effect": 14.63}
{"compound": "CCC(C(=O)NCC1CCN(c2ccncc2)CC1)N(C)C", "stereo": "centres undefined", "effect": -7.5}

Data taken from ChEMBL document CHEMBL3988442, “University of Dundee, Small-Polar-MMV Screening Library” (2021).